Here are results for nine molecules from paper PMC7954794, “Protein context shapes the specificity of SH3 domain-mediated interactions in vivo” (Nature Communications, 2021).

No dose or concentration is given here for some results.

The labels stand for the following.
B1: YOR042W (protein, UniProt Q08412 1-411, looked up)
Ubiquitin-binding protein CUE5: MEEKEGIKDSSLLEKSNVPESINEDISKTTDVDLNSDGKKDNDTSAKDGTPKVEEKVNKSSGIDEDEVVTPAEDAKEEEEEHPPLPARRKSEEEPSKENPILQELKDAFPNLEEKYIKAVIIASQGVLSPAFNALLFLSDPESGKDIELPTQPVRKNPEAPARRRQTQLEQDELLARQLDEQFNSSHSRRRNRDRATRSMHEQRRRRHNPNEREQHHEDSEEEDSWSQFVEKDLPELTDRAGRSLQDTANKVSNWISDAYRRNFASGNEQNDNQHGHQDQQEWEPEIVDLSQGGKNSRPQQPERRRFNSFGVQVGDDSLESHGITLHNEDGFEDDEDVPPQLPTRTKSGESTGKVVAETTYIDTPDTETKKKWQPLPPEPLDTTPTKVNAVSRNKKNPDEDEFLINSDDEM
B2: YNL243W (protein, UniProt P33338 1-968, looked up)
Protein SLA2: MSRIDSDLQKALKKACSVEETAPKRKHVRACIVYTWDHQSSKAVFTTLKTLPLANDEVQLFKMLIVLHKIIQEGHPSALAEAIRDRDWIRSLGRVHSGGSSYSKLIREYVRYLVLKLDFHAHHRGFNNGTFEYEEYVSLVSVSDPDEGYETILDLMSLQDSLDEFSQIIFASIQSERRNTECKISALIPLIAESYGIYKFITSMLRAMHRQLNDAEGDAALQPLKERYELQHARLFEFYADCSSVKYLTTLVTIPKLPVDAPDVFLINDVDESKEIKFKKREPSVTPARTPARTPTPTPPVVAEPAISPRPVSQRTTSTPTGYLQTMPTGATTGMMIPTATGAANAIFPQATAQMQPDFWANQQAQFANEQNRLEQERVQQLQQQQAQQELFQQQLQKAQQDMMNMQLQQQNQHQNDLIALTNQYEKDQALLQQYDQRVQQLESEITTMDSTASKQLANKDEQLTALQDQLDVWERKYESLAKLYSQLRQEHLNLLPRFKKLQLKVNSAQESIQKKEQLEHKLKQKDLQMAELVKDRDRARLELERSINNAEADSAAATAAAETMTQDKMNPILDAILESGINTIQESVYNLDSPLSWSGPLTPPTFLLSLLESTSENATEFATSFNNLIVDGLAHGDQTEVIHCVSDFSTSMATLVTNSKAYAVTTLPQEQSDQILTLVKRCAREAQYFFEDLMSENLNQVGDEEKTDIVINANVDMQEKLQELSLAIEPLLNIQSVKSNKETNPHSELVATADKIVKSSEHLRVDVPKPLLSLALMIIDAVVALVKAAIQCQNEIATTTSIPLNQFYLKNSRWTEGLISAAKAVAGATNVLITTASKLITSEDNENTSPEQFIVASKEVAASTIQLVAASRVKTSIHSKAQDKLEHCSKDVTDACRSLGNHVMGMIEDDHSTSQQQQPLDFTSEHTLKTAEMEQQVEILKLEQSLSNARKRLGEIRRHAYYNQDDD
B3: YLR196W (protein, UniProt P21304 1-576, looked up)
Periodic tryptophan protein 1: MISATNWVPRGFSSEFPEKYVLDDEEVERINQLAQLNLDDAKATLEEAEGESGVEDDAATGSSNKLKDQLDIDDDLKEYNLEEYDDEEIADNEGGKDVSMFPGLSNDSDVKFHEGEKGEDPYISLPNQEDSQEEKQELQVYPSDNLVLAARTEDDVSYLDIYVYDDGAGFHSSDIPVEEGDEADPDVARGLVRDPALYVHHDLMLPAFPLCVEWLDYKVGSNSEEAANYAAIGTFDPQIEIWNLDCVDKAFPDMILGEPLDNSMVSLKSKKKKKKSKTGHITTHHTDAVLSMAHNKYFRSVLASTSADHTVKLWDLNSGNAARSLASIHSNKNVSSSEWHMLNGSILLTGGYDSRVALTDVRISDESQMSKYWSAMAGEEIETVTFASENIILCGTDSGNVYSFDIRNNENRKPVWTLKAHDAGISTLCSNKFIPGMMSTGAMGEKTVKLWKFPLDDATNTKGPSMVLSRDFDVGNVLTSSFAPDIEVAGTMVIGGVNKVLKLWDVFTNRSVRKSFKSELENVQARAKEEAQKIGKSSRIARKYTSNDNPDTVITIDDQGEDEEEREGGDEHDDMA
B4: YBL039C (protein, UniProt P28274 1-579, looked up)
CTP synthase 1: MKYVVVSGGVISGIGKGVLASSTGMLMKTLGLKVTSIKIDPYMNIDAGTMSPLEHGECFVLDDGGETDLDLGNYERYLGVTLTKDHNITTGKIYSHVIAKERKGDYLGKTVQIVPHLTNAIQDWIERVAKIPVDDTGMEPDVCIIELGGTVGDIESAPFVEALRQFQFKVGKENFALIHVSLVPVIHGEQKTKPTQAAIKGLRSLGLVPDMIACRCSETLDKPTIDKIAMFCHVGPEQVVNVHDVNSTYHVPLLLLEQKMIDYLHARLKLDEISLTEEEKQRGLELLSKWKATTGNFDESMETVKIALVGKYTNLKDSYLSVIKALEHSSMKCRRKLDIKWVEATDLEPEAQESNKTKFHEAWNMVSTADGILIPGGFGVRGTEGMVLAARWARENHIPFLGVCLGLQIATIEFTRSVLGRKDSHSAEFYPDIDEKNHVVVFMPEIDKETMGGSMRLGLRPTFFQNETEWSQIKKLYGDVSEVHERHRHRYEINPKMVDELENNGLIFVGKDDTGKRCEILELKNHPYYIATQYHPEYTSKVLDPSKPFLGLVAASAGILQDVIEGKYDLEAGENKFNF
B5: YIR003W (protein, UniProt P40563 1-679, looked up)
Altered inheritance of …: MPSEVTPKVPERPSRRKTSELFPLSGSESGDIKANSEPPTPAGTPNVPTRRPILKAKTMTSFESGMDQESLPKVPLQRPVRRSTTEELNNVMNNTSKELEEIESLISKHNIHNVSRKKSPTSVEEGKVAAIHQNGQRSASDNKTSTNPSPLEKNEHEGAEGNESAISPSNLVNKSNNEVTEHSDSEDLTEKQKVHAALDNEAGDRSHFEEKLIPGDMKVQVDVSKDVEEGSLNALPPSGITESDDKAEKFTKHPESSLEELQKHQEQQEEKIFQNPTDEESTTSLNEKQEGKDNMEVNSQPQGPSDTETVIAATSSNVPSQIASEEENDVPVIPRSRPKKDFEAHVQKEELPNTQEKRVSEECDSTLISTEEESKIPKIPSERPKRRAPPPVPKKPSSRIAAFQEMLQKQQQQDLHNNGNSSATTASADIAKKHTDSSITSDTTKADFTSKLNGLFALPGMVNPGQLPPSLEKKLSSPDTESKLGPQDQSQAKTGPLGGTRRGRGPRGRKLPSKVASVEKIEEDDNTNKIEIFNNWNVSSSFSKEKVLIDTTPGEQAERALDEKSKSIPEEQREQSPNKMEAALCPFELDEKEKLPANAESDPLSQLPQTNAVGNRKAISEESLSPSEAIANRDQNDTTEIQEQQMEDQMEVDMERELSGGYEDVDSALHSEEASFHSL
B6: YGR229C (protein, UniProt P32566 1-505, looked up)
Cell wall assembly regulator …: MDLFKRKVKEWVYSLSTDDHYAEYNPDETPTFNMGKRLNSNNGQVNPSQMHLNSVDEEMSMGFQNGVPSNEDINIDEFTSTESNDGVSETLLAWRHIDFWTSEHNPDLNATLSDPCTQNDITHAEEDLEVSFPNPVKASFKIHDGQEDLESMTGTSGLFYGFQLMTLDQVVAMTQAWRNVAKNLNKRSQQGLSHVTSTGSSSSMERLNGNKFKLPNIPDQKSIPPNAVQPVYAHPAWIPLITDNAGNHIGVDLAPGPNGKYAQIITFGRDFDTKFVIAENWGEFLLSFANDLEAGNWYLVDDNDDYFSGDGELVFRDKKSNGPIQDYFEVLKRRTWIKYQENLRSQQQKSQPDTSLQEQKYVPASQKKVAAEQPSTLNAESIKGEDSGSADVQSVQDHESVKIVKTEPSEAETTTVNTESLGQAEHEIKADNVDIKQESERKEDEKQPKVEEKEHVENEHVTESAKKDDDVNKQTEEMNKKEENEIRSDDAKVEEAREEFENIAL
B7: YFL010C (protein, UniProt P43582 1-211, looked up)
WW domain-containing protein …: MAQSKSNPPQVPSGWKAVFDDEYQTWYYVDLSTNSSQWEPPRGTTWPRPKGPPPGVNNEKSSRQQADQAPPPYSSQSTPQVQAGAQAQQPRYYQPQQPQYPQYPQQQRYYPQQAPMPAAAPQQAYYGTAPSTSKGSGHGGAMMGGLLGVGAGLLGGAMLEHAFDDHNYDGPDTVVVENNYYGDDAGGSDGGFDDAGGFDGGFDDGFDGSDF
B8: YBL007C (protein, UniProt P32790 1-1244, looked up)
Actin cytoskeleton-regulatory …: MTVFLGIYRAVYAYEPQTPEELAIQEDDLLYLLQKSDIDDWWTVKKRVIGSDSEEPVGLVPSTYIEEAPVLKKVRAIYDYEQVQNADEELTFHENDVFDVFDDKDADWLLVKSTVSNEFGFIPGNYVEPENGSTSKQEQAPAAAEAPAATPAAAPASAAVLPTNFLPPPQHNDRARMMQSKEDQAPDEDEEGPPPAMPARPTATTETTDATAAAVRSRTRLSYSDNDNDDEEDDYYYNSNSNNVGNHEYNTEYHSWNVTEIEGRKKKKAKLSIGNNKINFIPQKGTPHEWSIDKLVSYDNEKKHMFLEFVDPYRSLELHTGNTTTCEEIMNIIGEYKGASRDPGLREVEMASKSKKRGIVQYDFMAESQDELTIKSGDKVYILDDKKSKDWWMCQLVDSGKSGLVPAQFIEPVRDKKHTESTASGIIKSIKKNFTKSPSRSRSRSRSKSNANASWKDDELQNDVVGSAAGKRSRKSSLSSHKKNSSATKDFPNPKKSRLWVDRSGTFKVDAEFIGCAKGKIHLHKANGVKIAVAADKLSNEDLAYVEKITGFSLEKFKANDGSSSRGTDSRDSERERRRRLKEQEEKERDRRLKERELYELKKARELLDEERSRLQEKELPPIKPPRPTSTTSVPNTTSVPPAESSNNNNSSNKYDWFEFFLNCGVDVSNCQRYTINFDREQLTEDMMPDINNSMLRTLGLREGDIVRVMKHLDKKFGRENIASIPTNATGNMFSQPDGSLNVATSPETSLPQQLLPQTTSPAQTAPSTSAETDDAWTVKPASKSESNLLSKKSEFTGSMQDLLDLQPLEPKKAAASTPEPNLKDLEPVKTGGTTVPAAPVSSAPVSSAPAPLDPFKTGGNNILPLSTGFVMMPMITGGDMLPMQRTGGFVVPQTTFGMQSQVTGGILPVQKTGNGLIPISNTGGAMMPQTTFGAAATVLPLQKTGGGLIPIATTGGAQFPQTSFNVQGQQQLPTGSILPVQKTANGLISANTGVSMPTVQRTGGTMIPQTSFGVSQQLTGGAMMTQPQNTGSAMMPQTSFNAVPQITGGAMMPQTSFNALPQVTGGAMMPLQRTGGALNTFNTGGAMIPQTSFSSQAQNTGGFRPQSQFGLTLQKTGGIAPLNQNQFTGGAMNTLSTGGVLQQQQPQTMNTFNTGGVMQELQMMTTFNTGGAMQQPQMMNTFNTDGIMQQPQMMNTFNTGGAMQQPQQQALQNQPTGFGFGNGPQQSRQANIFNATASNPFGF
B9: YHR114W (protein, UniProt P38822 1-633, looked up)
Protein BZZ1: MSADLSIGNEIKDSFKETHKWVQNNLKWLKDIEQFYRERAKLEKDYSERLSRLSAEYFNKKSSTSVPISVGDTPTTTPGSIEAAGVVAWNEILSQTDMISKDHDQLSTDFENHVANQLSGLFTKLDMTLSKINGFNNDMVNKKDNIYHELEKAKKDYDEACSTMEMARNRYTKASNDRNKKKLDEKEMEMNKCKNEYLIKINQANRTKDKYYFQDVPEVLDLLQDVNEAKTLFLNDLWLKAASVENDLGANVSKRLQAANSVVKQNKPSLNTAIFIKHNLKNWKEPQDFVYKPSPVWHDDEKFAVPSSLEVEDLRIKLAKAENDYNSLQDKTQNELSKLSTLNKIKHEMKTNEDNINATKFYDTLKEYLNVVSPFTSHETLKLQAEVQIESIQNNVPEEYDLSTDNIDLSKTKKKSGIFSKFKHNILNVDSKPSSGGSTGNGNGGPLHITSLFNTSRRTRLGSAPNNAGEDSDNNSIRTTSTNNTKKTTQNSSDDGKNKVLYAYVQKDDDEITITPGDKISLVARDTGSGWTKINNDTTGETGLVPTTYIRISSAATVKANDRGPAPEVPPPRRSTLPVRTMEAIYAYEAQGDDEISIDPGDIITVIRGDDGSGWTYGECDGLKGLFPTSYCK

This data set relates to BBC1. Description: DHFR-PCA on solid medium, bait BBC1 (Fig. 1B). In kind it is cell-based, Saccharomyces cerevisiae. Set-up: key: 0: SH3-independent; 1: SH3-dependent PPIs; 2: SH3-inhibited PPIs. The conditions noted are these: bait BBC1, label = prey. The text has this:
Supplement 41467_2021_21873_MOESM8_ESM.xlsx, sheet "Fig1B" | column: medsize; medrep; Ratio; Score
As for B1, the Score is listed as 1.

Take B2: the Score came to 1.

As to B3, the Score worked out at 1.

B4: the Score came out at 1.

As to B5, the Score is reported as 0.

Molecule B6 displayed a Score of 1.

As to B7, the Score is 1.

B8 registered a Score of 1.

B9 gave a Score of 1.
